Results published in patent publication US20150283120A1, “ANTIBIOTIC METHODS AND COMPOSITIONS FOR BACTERIA INFECTIONS” (THE UNIVERSITY OF CHICAGO, priority 2012, published 2015).
Counter-ions that a name gives are not always drawn. Some entries share one result that the patent states for a list of compounds.

Columns and labels:
Format in all cases: cell-based, Staphylococcus aureus
hVISA 2275 = conditions: with vancomycin
From the text: (§1) As shown in the analysis of the checkerboard assays (Table 6), gossypol fully potentiated vancomycin (FIC i<0.5) in hVISA, VISA, VRS2 and VRS1. […] Clomiphene partially potentiated vancomycin in hVISA, VISA, and VRS1 and it fully potentiated in strain VRS2.

VRS2 = conditions: with vancomycin
From the text: as §1

[1] = test system: MRSA strain USA300-isolate 923; assay: Checkerboard MIC testing of compounds with oxacillin; conditions: strain 923; in at least one combination (well)
VRS1 = conditions: with vancomycin
From the text: as §1

With CCN(CC)CCOc1ccc(/C(=C(/Cl)c2ccccc2)c2ccccc2)cc1 [Clomiphene citrate (Z,E), 2-(4-(2-chloro-1,2-diphenylethenyl)phenoxy)-N,N-diethyl-ethanamine] the Synergy category (hVISA 2275) was “partially potentiated (partially potentiated vancomycin (FIC i>0.5 and <1.0))”, the Synergy category (VRS2) was “fully potentiated (fully potentiated vancomycin (FIC i<0.5))” and the “FICi (FIC index) with oxacillin” value [1] was at most 0.5.
For CCn1cc(C(=O)O)c(=O)c2cc(F)c(N3CCNCC3)cc21 [Norfloxacin, 1-ethyl-6-fluoro-4-oxo-7-piperazin-1-yl-1H-quinoline-3-carboxylic acid], the “FICi (FIC index) with oxacillin” value [1] was at most 0.5.
In the case of Cc1cc(/C=C/c2ccc3cc(N(C)C)ccc3[n+]2C)c(C)n1-c1ccccc1 [Pyrvinium pamoate, 2-[(E)-2-(2,5-Dimethyl-1-phenylpyrrol-3-yl)ethenyl]-N,N,1-trimethylquinolin-1-ium-6-amine], the Synergy category (hVISA 2275) is reported as “partially potentiated (partially potentiated vancomycin (FIC i>0.5 and <1.0))”, the Synergy category (VRS1) is reported as “fully potentiated (fully potentiated vancomycin (FIC i<0.5))” and the Synergy category (VRS2) is reported as “fully potentiated (fully potentiated vancomycin (FIC i<0.5))”. The “FICi (FIC index) with oxacillin” value [1] was at most 0.5.
